Source: patent US8524291B2, “Anti-obesity product and its method of preparation” (Chongquing Institute of Ecological Materia Medica Co. Ltd., priority 2006, dated 2013)
For at least one compound, name, drawing or mass did not settle the structure.

Assay: 40-day study in ob/ob mice on high fat diet: body weight and fat, metabolic parameters, liver indicators
Type: in vivo, C57 black ob/ob mice
Protocol: Forty C57 black ob/ob mice were allocated to five groups of eight for study over 40 days as follows:
High fat diet—no treatment;
High fat diet—100 mg/kg/OD PYN22;
High fat diet—300 mg/kg/OD PYN22; • High fat diet—3 mg/kg/OD Rosiglitazone (positive control).
Mice were weighed twice per week and food intake measured daily throughout the study. Any laxative effects of treatments were visually examined and recorded.
Oral glucose tolerance tests were conducted on Day 7, Day 21 and Day 35.
Energy expenditure was measured at Day 14.
Fasting plasma insulin and lipids were measured on Days 7, 21 and 35.
Three days before sacrifice, 100 ul blood samples were taken from all animals to provide plasma glucose, insulin, free fatty acid, triglycerides, cholesterol and HDL-cholesterol.
At sacrifice, body mass and fat mass were calculated; the same parameters were also calculated for liver, heart and white adipose tissues.

CN(CCOc1ccc(CC2SC(=O)NC2=O)cc1)c1ccccn1 (stereo not drawn) [Rosiglitazone]
body fat gained compared with treatment free high fat group (3 mg/kg/OD): not significantly different | body weight / weight gain over the study (FIG. 7A, 7B) (3 mg/kg/OD): increased body weight that exceeded the other four groups | total cholesterol (FIG. 8A) (PYN22 100 and 300 mg/kg/OD, Rosiglitazone 3 mg/kg/OD): statistically significant reduction
